Laboratory results published in paper PMC4264851.
These are yes or no findings as the source states them, for the method shown. Binding seen in cells or lysates may run through a third protein. A yes stands for co-enrichment or nearness to the bait. Other partners may have been found. For some assays here: Sequences can lack the tags named with a protein.

Assays:
[1] = target: T1, Utp12-FLAG (S. cerevisiae) (UniProt Q12220); assay: affinity purification with mass spectrometry; only Utp12-FLAG and Utp13 co-expressed in SF21 cells (bacmid K1978); one-step anti-FLAG purification, FLAG peptide elution; SDS-PAGE and MS
T1 sequence: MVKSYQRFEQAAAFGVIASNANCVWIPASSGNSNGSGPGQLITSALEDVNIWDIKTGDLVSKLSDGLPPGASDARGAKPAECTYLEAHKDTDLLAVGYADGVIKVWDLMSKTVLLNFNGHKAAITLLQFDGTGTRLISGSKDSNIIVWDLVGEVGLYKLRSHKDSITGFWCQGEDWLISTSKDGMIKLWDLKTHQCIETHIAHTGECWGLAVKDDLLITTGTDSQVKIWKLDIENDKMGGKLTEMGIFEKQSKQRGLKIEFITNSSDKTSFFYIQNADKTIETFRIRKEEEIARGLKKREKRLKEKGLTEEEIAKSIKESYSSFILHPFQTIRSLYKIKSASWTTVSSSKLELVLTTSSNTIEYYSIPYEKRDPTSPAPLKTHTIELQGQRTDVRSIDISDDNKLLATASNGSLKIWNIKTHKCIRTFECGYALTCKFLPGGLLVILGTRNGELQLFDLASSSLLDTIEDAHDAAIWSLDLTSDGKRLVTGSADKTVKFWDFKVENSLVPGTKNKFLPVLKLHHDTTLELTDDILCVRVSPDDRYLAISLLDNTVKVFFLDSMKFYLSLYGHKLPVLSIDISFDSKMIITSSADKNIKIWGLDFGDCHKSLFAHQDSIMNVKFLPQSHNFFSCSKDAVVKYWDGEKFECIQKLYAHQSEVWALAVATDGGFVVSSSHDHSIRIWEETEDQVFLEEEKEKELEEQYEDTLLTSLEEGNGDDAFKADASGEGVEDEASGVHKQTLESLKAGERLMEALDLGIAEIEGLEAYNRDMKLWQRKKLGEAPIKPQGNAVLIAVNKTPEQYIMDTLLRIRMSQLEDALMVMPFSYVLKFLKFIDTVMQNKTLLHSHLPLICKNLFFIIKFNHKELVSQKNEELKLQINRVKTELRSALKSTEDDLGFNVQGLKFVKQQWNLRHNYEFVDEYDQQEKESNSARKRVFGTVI

Pwp2-TAP (S. cerevisiae) [2] = target: T2, Pwp2-TAP (S. cerevisiae) (UniProt P25635); assay: affinity purification with mass spectrometry; Pwp2-TAP, Utp6-HA, Utp12-FLAG, Utp13, Utp18 and Utp21 co-expressed in SF21 cells (bacmid K1991); one-step, bait Pwp2-TAP on IgG Sepharose, TEV elution; SDS-PAGE, Coomassie, MS of bands
T2 sequence: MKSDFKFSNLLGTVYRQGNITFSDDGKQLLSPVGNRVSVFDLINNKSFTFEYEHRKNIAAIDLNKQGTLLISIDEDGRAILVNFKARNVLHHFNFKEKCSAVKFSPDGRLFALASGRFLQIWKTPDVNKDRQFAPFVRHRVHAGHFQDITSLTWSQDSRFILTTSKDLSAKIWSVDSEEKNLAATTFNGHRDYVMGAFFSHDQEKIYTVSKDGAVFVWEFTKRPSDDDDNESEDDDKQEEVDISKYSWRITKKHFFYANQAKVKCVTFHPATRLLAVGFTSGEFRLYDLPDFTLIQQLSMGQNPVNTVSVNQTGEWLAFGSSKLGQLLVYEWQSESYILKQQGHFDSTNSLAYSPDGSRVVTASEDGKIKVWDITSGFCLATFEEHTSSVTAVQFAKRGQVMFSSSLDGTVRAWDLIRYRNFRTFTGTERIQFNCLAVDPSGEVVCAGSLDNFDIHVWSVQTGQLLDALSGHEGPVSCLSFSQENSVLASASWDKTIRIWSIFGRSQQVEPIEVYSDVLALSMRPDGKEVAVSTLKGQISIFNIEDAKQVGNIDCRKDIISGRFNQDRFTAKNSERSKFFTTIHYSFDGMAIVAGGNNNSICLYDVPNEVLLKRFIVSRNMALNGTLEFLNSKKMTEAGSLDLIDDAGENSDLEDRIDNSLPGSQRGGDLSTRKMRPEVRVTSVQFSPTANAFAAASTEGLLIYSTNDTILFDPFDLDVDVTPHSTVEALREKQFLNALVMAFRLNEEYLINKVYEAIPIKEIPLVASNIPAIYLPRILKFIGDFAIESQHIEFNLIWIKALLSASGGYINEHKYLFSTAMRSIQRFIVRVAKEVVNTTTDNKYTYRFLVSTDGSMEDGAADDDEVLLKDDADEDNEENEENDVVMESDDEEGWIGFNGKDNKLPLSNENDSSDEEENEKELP

Utp6-HA (S. cerevisiae) [3] = target: T3, Utp6-HA (S. cerevisiae) (UniProt Q02354); assay: affinity purification with mass spectrometry; bacmid K1992 (six UTP B proteins); two-step: anti-FLAG eluate (Utp12-FLAG) purified again on anti-HA affinity matrix with Utp6-HA as bait, HA peptide elution; SDS-PAGE, Coomassie, MS of bands
T3 sequence: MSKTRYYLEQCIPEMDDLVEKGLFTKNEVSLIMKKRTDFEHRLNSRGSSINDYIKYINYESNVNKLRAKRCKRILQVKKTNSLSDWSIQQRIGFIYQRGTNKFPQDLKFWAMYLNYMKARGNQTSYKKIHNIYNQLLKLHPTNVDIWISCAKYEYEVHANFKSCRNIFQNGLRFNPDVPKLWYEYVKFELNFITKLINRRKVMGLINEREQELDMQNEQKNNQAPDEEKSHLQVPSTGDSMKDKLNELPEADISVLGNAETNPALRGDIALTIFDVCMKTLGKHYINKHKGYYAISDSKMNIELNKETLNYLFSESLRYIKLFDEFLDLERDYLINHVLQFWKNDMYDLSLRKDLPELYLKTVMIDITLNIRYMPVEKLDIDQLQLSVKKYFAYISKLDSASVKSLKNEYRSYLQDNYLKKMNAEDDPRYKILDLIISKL

Utp6-HA (S. cerevisiae) [4] = target: T3, Utp6-HA (S. cerevisiae); assay: affinity purification with mass spectrometry; bacmid K1991 (six UTP B proteins); two-step: IgG Sepharose/TEV eluate (Pwp2-TAP) purified again on anti-HA affinity matrix with Utp6-HA as bait, HA peptide elution; SDS-PAGE, Coomassie, MS of bands
[5] = target: T1, Utp12-FLAG (S. cerevisiae); assay: affinity purification with mass spectrometry; Pwp2, Utp6-HA, Utp12-FLAG, Utp13, Utp18 and Utp21 co-expressed in SF21 cells (bacmid K1992); one-step, bait Utp12-FLAG on anti-FLAG affinity matrix, FLAG peptide elution; SDS-PAGE, Coomassie, MS of bands
Pwp2-TAP (S. cerevisiae) [6] = target: T2, Pwp2-TAP (S. cerevisiae); assay: affinity purification with mass spectrometry; only Pwp2-TAP, Utp6-HA, Utp18 and Utp21 co-expressed in SF21 cells (bacmid K1987), without Utp12 and Utp13; one-step, bait Pwp2-TAP on IgG-coupled beads, TEV elution; SDS-PAGE and MS

Measured: binding

B1: Utp13 (protein, UniProt Q05946 1-817)
chain: MDLKTSYKGISLNPIYAGSSAVATVSENGKILATPVLDEINIIDLTPGSRKILHKISNEDEQEITALKLTPDGQYLTYVSQAQLLKIFHLKTGKVVRSMKISSPSYILDADSTSTLLAVGGTDGSIIVVDIENGYITHSFKGHGGTISSLKFYGQLNSKIWLLASGDTNGMVKVWDLVKRKCLHTLQEHTSAVRGLDIIEVPDNDEPSLNLLSGGRDDIINLWDFNMKKKCKLLKTLPVNQQVESCGFLKDGDGKRIIYTAGGDAIFQLIDSESGSVLKRTNKPIEELFIIGVLPILSNSQMFLVLSDQTLQLINVEEDLKNDEDTIQVTSSIAGNHGIIADMRYVGPELNKLALATNSPSLRIIPVPDLSGPEASLPLDVEIYEGHEDLLNSLDATEDGLWIATASKDNTAIVWRYNENSCKFDIYAKYIGHSAAVTAVGLPNIVSKGYPEFLLTASNDLTIKKWIIPKPTASMDVQIIKVSEYTRHAHEKDINALSVSPNDSIFATASYDKTCKIWNLENGELEATLANHKRGLWDVSFCQYDKLLATSSGDKTVKIWSLDTFSVMKTLEGHTNAVQRCSFINKQKQLISCGADGLIKIWDCSSGECLKTLDGHNNRLWALSTMNDGDMIVSADADGVFQFWKDCTEQEIEEEQEKAKLQVEQEQSLQNYMSKGDWTNAFLLAMTLDHPMRLFNVLKRALGESRSRQDTEEGKIEVIFNEELDQAISILNDEQLILLMKRCRDWNTNAKTHTIAQRTIRCILMHHNIAKLSEIPGMVKIVDAIIPYTQRHFTRVDNLVEQSYILDYALVEMDKLF
binds: [1] | Pwp2-TAP (S. cerevisiae) [2] | Utp6-HA (S. cerevisiae) [3] | Utp6-HA (S. cerevisiae) [4] | [5]

B2: Utp21 (protein, UniProt Q06078 1-939)
chain: MSIDLKKRKVEEDVRSRGKNSKIFSPFRIIGNVSNGVPFATGTLGSTFYIVTCVGKTFQIYDANTLHLLFVSEKETPSSIVALSAHFHYVYAAYENKVGIYKRGIEEHLLELETDANVEHLCIFGDYLCASTDDNSIFIYKKSDPQDKYPSEFYTKLTVTEIQGGEIVSLQHLATYLNKLTVVTKSNVLLFNVRTGKLVFTSNEFPDQITTAEPAPVLDIIALGTVTGEVIMFNMRKGKRIRTIKIPQSRISSLSFRTDGSSHLSVGTSSGDLIFYDLDRRSRIHVLKNIHRESYGGVTQATFLNGQPIIVTSGGDNSLKEYVFDPSLSQGSGDVVVQPPRYLRSRGGHSQPPSYIAFADSQSHFMLSASKDRSLWSFSLRKDAQSQEMSQRLHKKQDGGRVGGSTIKSKFPEIVALAIENARIGEWENIITAHKDEKFARTWDMRNKRVGRWTFDTTDDGFVKSVAMSQCGNFGFIGSSNGSITIYNMQSGILRKKYKLHKRAVTGISLDGMNRKMVSCGLDGIVGFYDFNKSTLLGKLKLDAPITAMVYHRSSDLFALALDDLSIVVIDAVTQRVVRQLWGHSNRITAFDFSPEGRWIVSASLDSTIRTWDLPTGGCIDGIIVDNVATNVKFSPNGDLLATTHVTGNGICIWTNRAQFKTVSTRTIDESEFARMALPSTSVRGNDSMLSGALESNGGEDLNDIDFNTYTSLEQIDKELLTLSIGPRSKMNTLLHLDVIRKRSKPKEAPKKSEKLPFFLQLSGEKVGDEASVREGIAHETPEEIHRRDQEAQKKLDAEEQMNKFKVTGRLGFESHFTKQLREGSQSKDYSSLLATLINFSPAAVDLEIRSLNSFEPFDEIVWFIDALTQGLKSNKNFELYETFMSLLFKAHGDVIHANNKNQDIASALQNWEDVHKKEDRLDDLVKFCMGVAAFVTTA
binds: Pwp2-TAP (S. cerevisiae) [6] | Pwp2-TAP (S. cerevisiae) [2] | [5]
